According to the supplement of paper PMC10849652:
The list shows a part of the results.

Chains of the proteins cited; added tags and fusions are not shown. Lines headed by an entry give the natural chain unless they say otherwise; changes in a name come on top.
UniProt Q15287: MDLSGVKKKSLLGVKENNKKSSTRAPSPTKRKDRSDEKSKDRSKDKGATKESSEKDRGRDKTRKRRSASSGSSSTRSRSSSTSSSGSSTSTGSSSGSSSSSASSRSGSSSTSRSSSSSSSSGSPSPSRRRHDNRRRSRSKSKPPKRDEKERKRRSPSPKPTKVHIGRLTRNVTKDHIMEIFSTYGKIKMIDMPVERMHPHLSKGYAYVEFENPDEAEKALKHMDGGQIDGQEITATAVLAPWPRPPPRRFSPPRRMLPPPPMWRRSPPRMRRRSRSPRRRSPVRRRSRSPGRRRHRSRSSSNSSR
UniProt O75695: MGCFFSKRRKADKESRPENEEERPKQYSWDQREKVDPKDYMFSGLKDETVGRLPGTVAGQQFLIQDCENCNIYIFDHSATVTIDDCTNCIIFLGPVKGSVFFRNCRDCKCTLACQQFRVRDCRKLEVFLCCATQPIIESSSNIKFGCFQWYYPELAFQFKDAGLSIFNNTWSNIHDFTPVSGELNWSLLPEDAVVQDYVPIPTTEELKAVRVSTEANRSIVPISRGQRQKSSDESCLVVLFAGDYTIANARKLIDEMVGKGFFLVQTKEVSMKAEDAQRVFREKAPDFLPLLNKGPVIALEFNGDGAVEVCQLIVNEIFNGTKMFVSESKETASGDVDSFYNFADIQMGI
UniProt Q9BUL9: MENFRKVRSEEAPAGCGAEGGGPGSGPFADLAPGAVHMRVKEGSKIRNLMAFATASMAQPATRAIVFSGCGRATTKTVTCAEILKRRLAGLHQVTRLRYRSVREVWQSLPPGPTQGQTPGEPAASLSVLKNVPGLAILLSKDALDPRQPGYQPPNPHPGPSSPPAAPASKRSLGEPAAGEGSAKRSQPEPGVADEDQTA
UniProt O95059: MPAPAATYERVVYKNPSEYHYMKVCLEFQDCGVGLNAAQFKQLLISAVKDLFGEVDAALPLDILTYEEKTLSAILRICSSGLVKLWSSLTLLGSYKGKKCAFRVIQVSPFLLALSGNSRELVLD
UniProt Q969K3: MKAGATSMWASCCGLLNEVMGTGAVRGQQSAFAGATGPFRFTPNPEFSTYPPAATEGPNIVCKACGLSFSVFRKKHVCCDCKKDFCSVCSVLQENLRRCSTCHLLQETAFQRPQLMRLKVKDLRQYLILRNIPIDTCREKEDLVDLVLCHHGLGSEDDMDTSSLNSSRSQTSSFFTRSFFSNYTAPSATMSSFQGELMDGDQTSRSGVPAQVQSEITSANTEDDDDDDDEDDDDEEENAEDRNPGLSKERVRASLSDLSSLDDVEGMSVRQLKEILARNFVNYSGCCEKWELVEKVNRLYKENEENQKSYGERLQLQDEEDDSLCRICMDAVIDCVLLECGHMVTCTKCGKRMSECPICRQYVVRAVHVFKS
UniProt Q13464: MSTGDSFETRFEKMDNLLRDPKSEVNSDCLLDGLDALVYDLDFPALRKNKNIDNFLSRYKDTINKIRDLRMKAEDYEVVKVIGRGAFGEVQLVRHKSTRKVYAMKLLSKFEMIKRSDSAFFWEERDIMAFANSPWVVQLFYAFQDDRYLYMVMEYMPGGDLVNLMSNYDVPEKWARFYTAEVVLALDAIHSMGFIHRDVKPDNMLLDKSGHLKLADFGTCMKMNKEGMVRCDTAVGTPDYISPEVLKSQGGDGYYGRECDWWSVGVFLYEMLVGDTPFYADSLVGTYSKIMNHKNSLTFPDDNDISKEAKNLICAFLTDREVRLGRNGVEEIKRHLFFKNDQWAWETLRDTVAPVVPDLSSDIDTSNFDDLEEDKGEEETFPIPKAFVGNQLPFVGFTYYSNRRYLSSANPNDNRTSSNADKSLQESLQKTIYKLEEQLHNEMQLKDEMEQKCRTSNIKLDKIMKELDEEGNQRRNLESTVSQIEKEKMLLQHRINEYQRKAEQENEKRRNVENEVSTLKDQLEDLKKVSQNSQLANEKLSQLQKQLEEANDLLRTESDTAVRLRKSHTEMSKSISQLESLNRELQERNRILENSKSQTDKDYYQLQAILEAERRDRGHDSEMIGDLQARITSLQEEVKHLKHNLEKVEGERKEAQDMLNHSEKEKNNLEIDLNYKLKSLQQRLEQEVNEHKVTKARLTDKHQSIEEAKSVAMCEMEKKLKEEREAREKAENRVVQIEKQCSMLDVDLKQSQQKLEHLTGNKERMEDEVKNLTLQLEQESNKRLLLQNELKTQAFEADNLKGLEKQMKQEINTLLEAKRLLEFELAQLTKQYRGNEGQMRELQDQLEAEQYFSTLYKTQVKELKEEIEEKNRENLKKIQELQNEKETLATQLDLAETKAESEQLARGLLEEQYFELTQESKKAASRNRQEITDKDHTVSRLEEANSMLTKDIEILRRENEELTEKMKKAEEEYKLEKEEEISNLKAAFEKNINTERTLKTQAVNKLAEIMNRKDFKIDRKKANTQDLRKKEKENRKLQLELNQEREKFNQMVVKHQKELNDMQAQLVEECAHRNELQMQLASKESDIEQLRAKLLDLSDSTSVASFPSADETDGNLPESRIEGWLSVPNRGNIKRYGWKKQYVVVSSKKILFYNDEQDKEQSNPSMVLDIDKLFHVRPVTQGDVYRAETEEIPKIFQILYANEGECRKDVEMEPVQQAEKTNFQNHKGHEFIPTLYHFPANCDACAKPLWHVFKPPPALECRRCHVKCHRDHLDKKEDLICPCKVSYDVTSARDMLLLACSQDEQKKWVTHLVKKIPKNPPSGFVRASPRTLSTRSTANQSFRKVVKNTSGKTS
UniProt Q8N122, whole entry, looked up: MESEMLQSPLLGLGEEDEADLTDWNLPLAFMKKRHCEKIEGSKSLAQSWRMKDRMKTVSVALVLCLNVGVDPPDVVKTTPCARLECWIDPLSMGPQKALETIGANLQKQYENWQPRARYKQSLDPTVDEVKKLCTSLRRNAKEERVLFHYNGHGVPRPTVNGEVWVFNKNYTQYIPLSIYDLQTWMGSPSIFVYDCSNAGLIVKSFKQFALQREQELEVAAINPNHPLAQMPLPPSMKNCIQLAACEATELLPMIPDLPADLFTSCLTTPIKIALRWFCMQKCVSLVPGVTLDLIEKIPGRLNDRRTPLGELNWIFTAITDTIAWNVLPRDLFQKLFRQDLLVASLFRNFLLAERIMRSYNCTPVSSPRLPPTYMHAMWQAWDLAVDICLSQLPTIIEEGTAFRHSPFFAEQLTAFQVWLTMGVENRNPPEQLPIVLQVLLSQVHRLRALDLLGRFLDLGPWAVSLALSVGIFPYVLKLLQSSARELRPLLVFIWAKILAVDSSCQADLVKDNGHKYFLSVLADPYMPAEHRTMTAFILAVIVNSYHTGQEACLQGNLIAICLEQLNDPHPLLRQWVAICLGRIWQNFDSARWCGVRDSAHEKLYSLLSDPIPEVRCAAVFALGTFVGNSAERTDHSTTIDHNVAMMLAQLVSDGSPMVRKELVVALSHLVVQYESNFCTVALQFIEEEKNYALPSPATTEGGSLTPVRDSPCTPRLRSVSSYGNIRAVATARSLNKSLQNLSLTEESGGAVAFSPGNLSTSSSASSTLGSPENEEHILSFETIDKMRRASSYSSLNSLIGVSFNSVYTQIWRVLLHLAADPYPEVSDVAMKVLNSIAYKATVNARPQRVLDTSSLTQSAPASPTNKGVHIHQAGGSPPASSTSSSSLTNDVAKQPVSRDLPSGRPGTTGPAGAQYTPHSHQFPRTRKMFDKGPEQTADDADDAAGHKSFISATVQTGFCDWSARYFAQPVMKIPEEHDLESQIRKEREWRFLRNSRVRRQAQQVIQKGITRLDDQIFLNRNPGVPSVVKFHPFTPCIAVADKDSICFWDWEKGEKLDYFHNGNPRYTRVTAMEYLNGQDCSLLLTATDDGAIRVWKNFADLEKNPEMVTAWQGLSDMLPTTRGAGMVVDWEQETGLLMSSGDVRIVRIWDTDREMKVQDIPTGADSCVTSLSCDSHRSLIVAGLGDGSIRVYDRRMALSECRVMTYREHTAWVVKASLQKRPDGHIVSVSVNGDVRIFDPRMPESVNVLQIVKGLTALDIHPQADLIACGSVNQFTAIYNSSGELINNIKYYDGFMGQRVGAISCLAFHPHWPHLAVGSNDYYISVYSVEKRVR

Key:
Assay in all cases: log2 fold change, soluble protein after heating vs DMSO (PISA); higher = thermal stabilisation; K562 cells, 10 uM, 30 min; active = over 0.2 and 3.5 SD of the protein, either way, in both replicates (recomputed)
bafetinib = compound: Cc1ccc(NC(=O)c2ccc(CN3CC[C@H](N(C)C)C3)c(C(F)(F)F)c2)cc1Nc1nccc(-c2cncnc2)n1 [bafetinib]
In short: (§1)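 K562 cells (2×10^6 cells/mL) were treated with 10 μM compound for 30 min, and aliquots were heated for 3 min over 48°C-58°C. Pooled aliquots were extracted in PBS with 0.5% NP-40 at 4°C, and the supernatant after 21,000xg for 90 min was measured by TMTpro 16plex LC-MS/MS with channel sums equalised. Reported thermal stability, relative to control samples and from duplicates, is a log2 fold change.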

[1] = compound: Cc1cccc(CC(=O)N2CCc3c2ccc(-c2cn(C)c4ncnc(N)c24)c3F)n1
In short: as §1

nilotinib = compound: Cc1cn(-c2cc(NC(=O)c3ccc(C)c(Nc4nccc(-c5cccnc5)n4)c3)cc(C(F)(F)F)c2)cn1 [nilotinib]
In short: as §1

[2] = compound: Cc1nc(Nc2n[nH]c3c2CN(C(=O)N[C@H](CN(C)C)c2ccccc2)C3(C)C)c2sccc2n1
In short: as §1

dasatinib = compound: Cc1nc(Nc2ncc(C(=O)Nc3c(C)cccc3Cl)s2)cc(N2CCN(CCO)CC2)n1 [dasatinib]
In short: as §1

[3] = compound: Cc1ncc(-c2ccnc(Nc3ccc(S(C)(=O)=O)cc3)n2)n1C(C)C
In short: as §1

[4] = compound: Cn1cc(-c2ccc3c(c2)CCN3C(=O)Cc2cccc(C(F)(F)F)c2)c2c(N)ncnc21
In short: as §1

[5] = compound: Cn1cc(-c2ccc3nnc(C(F)(F)c4ccc5ncccc5c4)n3n2)cn1
In short: as §1

tipifarnib = compound: Cn1cncc1[C@@](N)(c1ccc(Cl)cc1)c1ccc2c(c1)c(-c1cccc(Cl)c1)cc(=O)n2C [tipifarnib]
In short: as §1

mubritinib = compound: FC(F)(F)c1ccc(/C=C/c2nc(COc3ccc(CCCCn4ccnn4)cc3)co2)cc1 [mubritinib]
In short: as §1

[6] = compound: NC(=O)Nc1cc(-c2cccc(F)c2)sc1C(=O)N[C@H]1CCCNC1
In short: as §1

[7] = compound: NC(=O)c1cnc(N[C@@H]2CCCC[C@@H]2N)nc1Nc1cccc(-n2nccn2)c1
In short: as §1

[8] = compound: NC1(c2ccc(-c3nc4ccn5c(=O)[nH]nc5c4cc3-c3ccccc3)cc2)CCC1
In short: as §1

[9] = compound: NCC(=O)Nc1ccc(-n2nc(C(F)(F)F)cc2-c2ccc3c(ccc4ccccc43)c2)cc1
In short: as §1

entinostat = compound: Nc1ccccc1NC(=O)c1ccc(CNC(=O)OCc2cccnc2)cc1 [entinostat]
In short: as §1

vorinostat = compound: O=C(CCCCCCC(=O)Nc1ccccc1)NO [vorinostat]
In short: as §1

citarinostat = compound: O=C(CCCCCCNC(=O)c1cnc(N(c2ccccc2)c2ccccc2Cl)nc1)NO [citarinostat]
In short: as §1

silmitasertib = compound: O=C(O)c1ccc2c(c1)nc(Nc1cccc(Cl)c1)c1ccncc12 [silmitasertib]
In short: as §1

[10] = compound: O=C1NC(=O)C(c2cnc3ccccn23)=C1c1cn2c3c(cc(F)cc13)CN(C(=O)N1CCCCC1)CC2
In short: as §1

[11] = compound: c1cc(OCCN2CCCCC2)cc(-c2n[nH]c3ccc(-c4nnc[nH]4)cc23)c1
In short: as §1

Measured: log2 fold change

RNPS1 (UniProt Q15287)
inactive: bafetinib -0.073 | [1] -0.032 | nilotinib -0.035 | dasatinib -0.007 | [3] -0.12 | [4] -0.037 | [5] 0.011 | tipifarnib -0.084 | mubritinib 0.003 | [6] -0.019 | [7] -0.39 | [8] 0.097 | [9] 0.031 | entinostat -0.06 | vorinostat 0.024 | citarinostat 0.038 | silmitasertib -0.111 | [10] -0.018 | [11] -0.146
active: [2] -0.62

RPS21 (UniProt P63220)
inactive: bafetinib 0.087 | [1] -0.057 | nilotinib 0.011 | [2] 0.072 | dasatinib 0.1 | [3] -0.012 | [4] -0.009 | [5] -0.004 | tipifarnib 0.017 | mubritinib 0.002 | [6] 0.022 | [7] 0.018 | [8] 0.114 | [9] -0.012 | entinostat -0.061 | vorinostat -0.059 | citarinostat 0.002 | silmitasertib 0.008 | [10] 0.045 | [11] -0.015

RP2 (UniProt O75695)
inactive: bafetinib 0.094 | [1] 0.1 | nilotinib 0.135 | [2] -0.12 | dasatinib 0.02 | [3] -0.143 | [4] 0.044 | [5] 0.009 | tipifarnib 0.028 | mubritinib 0.068 | [6] -0.114 | [7] 0.056 | [8] -0.102 | [9] -0.067 | entinostat 0.005 | vorinostat 0.095 | citarinostat -0.011 | silmitasertib 0.116 | [10] 0.038 | [11] -0.023

RPP25 (UniProt Q9BUL9)
inactive: bafetinib 0.006 | [1] 0.098 | nilotinib 0.132 | [2] -0.096 | dasatinib -0.001 | [3] -0.06 | [4] 0 | [5] 0.006 | tipifarnib 0.016 | mubritinib 0.055 | [6] -0.046 | [7] 0.034 | [8] 0.106 | [9] 0.058 | entinostat -0.043 | vorinostat 0.039 | citarinostat -0.014 | silmitasertib 0.02 | [10] 0.04 | [11] -0.081

RPP14 (UniProt O95059)
inactive: bafetinib 0.045 | [1] 0 | nilotinib -0.014 | [2] 0.019 | dasatinib 0.063 | [3] -0.013 | [4] -0.078 | [5] -0.054 | tipifarnib 0.003 | mubritinib -0.084 | [6] 0.063 | [7] -0.006 | [8] -0.003 | [9] 0.138 | entinostat -0.065 | vorinostat -0.033 | citarinostat 0.051 | silmitasertib 0.06 | [10] 0.027 | [11] -0.107

RNF34 isoform 2 (UniProt Q969K3)
inactive: bafetinib 0.037 | [1] -0.014 | nilotinib -0.037 | [2] -0.001 | dasatinib 0.124 | [3] 0.015 | [4] -0.077 | [5] -0.061 | tipifarnib -0.005 | mubritinib 0.089 | [7] -0.09 | [8] -0.023 | [9] 0.063 | vorinostat 0.007 | citarinostat 0.029 | silmitasertib 0.254 | [10] -0.028 | [11] 0.15

ROCK1 (UniProt Q13464)
inactive: bafetinib -0.017 | [1] -0.006 | nilotinib -0.03 | [2] 0.007 | dasatinib -0.028 | [3] 0.034 | [4] -0.006 | [5] 0.01 | tipifarnib -0.037 | mubritinib 0.062 | [7] 0.054 | [8] -0.09 | [9] -0.029 | entinostat -0.002 | vorinostat 0.029 | citarinostat 0.068 | [10] -0.054

RPL28 (UniProt P46779)
inactive: bafetinib 0.538 | [1] 0.017 | nilotinib 0.021 | [2] 0.263 | dasatinib 0.354 | [3] -0.074 | [4] -0.544 | [5] -0.27 | tipifarnib 0.326 | mubritinib -0.341 | [6] 0.238 | [7] 0.205 | [8] 0.422 | [9] 0.275 | entinostat -0.097 | vorinostat -0.006 | citarinostat -0.208 | silmitasertib 0.151 | [10] 0.241 | [11] -0.288

RPL23 (UniProt P62829)
inactive: bafetinib 0.328 | [1] -0.023 | nilotinib 0.025 | [2] 0.259 | dasatinib 0.141 | [3] -0.008 | [4] -0.234 | [5] -0.092 | tipifarnib 0.083 | mubritinib -0.112 | [6] 0.042 | [7] 0.111 | [8] 0.222 | [9] 0.094 | entinostat -0.008 | vorinostat 0.004 | citarinostat -0.105 | silmitasertib 0.042 | [10] 0.107 | [11] -0.201

RPS4X (UniProt P62701)
inactive: bafetinib 0.332 | [1] 0 | nilotinib 0.051 | [2] 0.206 | dasatinib 0.061 | [3] -0.048 | [4] -0.251 | [5] -0.079 | tipifarnib 0.112 | mubritinib -0.105 | [6] 0.088 | [7] 0.095 | [8] 0.216 | [9] 0.088 | entinostat -0.048 | vorinostat 0.005 | citarinostat -0.104 | silmitasertib 0.014 | [10] 0.126 | [11] -0.204

RPTOR (UniProt Q8N122)
active: [8] -0.243
inactive: bafetinib -0.005 | [1] 0.034 | nilotinib -0.085 | [2] -0.103 | dasatinib -0.103 | [3] -0.045 | [4] -0.107 | [5] 0.009 | tipifarnib -0.062 | mubritinib 0.033 | [6] -0.026 | [7] -0.139 | [9] -0.021 | entinostat 0.009 | vorinostat 0.007 | citarinostat 0.056 | silmitasertib 0.085 | [10] -0.025 | [11] -0.008

2 neighbouring entries already listed, for reference:
RPL28 (UniProt P46779)
inactive: bafetinib 0.538 | [1] 0.017 | nilotinib 0.021 | [2] 0.263 | dasatinib 0.354 | [3] -0.074 | [4] -0.544 | [5] -0.27 | tipifarnib 0.326 | mubritinib -0.341 | [6] 0.238 | [7] 0.205 | [8] 0.422 | [9] 0.275 | entinostat -0.097 | vorinostat -0.006 | citarinostat -0.208 | silmitasertib 0.151 | [10] 0.241 | [11] -0.288

RPL23 (UniProt P62829)
inactive: bafetinib 0.328 | [1] -0.023 | nilotinib 0.025 | [2] 0.259 | dasatinib 0.141 | [3] -0.008 | [4] -0.234 | [5] -0.092 | tipifarnib 0.083 | mubritinib -0.112 | [6] 0.042 | [7] 0.111 | [8] 0.222 | [9] 0.094 | entinostat -0.008 | vorinostat 0.004 | citarinostat -0.105 | silmitasertib 0.042 | [10] 0.107 | [11] -0.201

The list goes on.

RPS27 (UniProt P42677)
inactive: bafetinib 0.062 | [1] 0.018 | nilotinib -0.024 | [2] 0.102 | dasatinib -0.072 | [3] -0.022 | [4] -0.054 | [5] -0.105 | tipifarnib 0.027 | mubritinib -0.057 | [6] 0.026 | [7] 0.036 | [8] 0.05 | [9] 0.032 | entinostat -0.053 | vorinostat 0.014 | citarinostat -0.027 | silmitasertib 0.019 | [10] 0.017 | [11] -0.143
